{"source": "patent US10525115B2", "about": "(Immatics Biotechnologies GmbH, priority 2014, dated 2020)", "test_system": "primary AML samples", "assay": "HLA class I ligandome analysis (W6/32 immunoaffinity purification, LC-MS/MS) of primary AML samples", "design": "species or system human", "conditions": "source protein (LiTAA); for Number of positive AMLs: AML patients (n=15); for rep. frequency: representation frequency in AML patients (n=15)", "data": [{"molecule": "CHTF18 (protein, UniProt Q8WVB6 1-975, looked up) Chromosome transmission …: MEDYEQELCGVEDDFHNQFAAELEVLAELEGASTPSPSGVPLFTAGRPPRTFEEALARGDAASSPAPAASVGSSQGGARKRQVDADLQPAGSLPHAPRIKRPRLQVVKRLNFRSEEMEEPPPPDSSPTDITPPPSPEDLAELWGHGVSEAAADVGLTRASPAARNPVLRRPPILEDYVHVTSTEGVRAYLVLRADPMAPGVQGSLLHVPWRGGGQLDLLGVSLASLKKQVDGERRERLLQEAQKLSDTLHSLRSGEEEAAQPLGAPEEEPTDGQDASSHCLWVDEFAPRHYTELLSDDFTNRCLLKWLKLWDLVVFGHERPSRKPRPSVEPARVSKEATAPGKWKSHEQVLEEMLEAGLDPSQRPKQKVALLCGPPGLGKTTLAHVIARHAGYSVVEMNASDDRSPEVFRTRIEAATQMESVLGAGGKPNCLVIDEIDGAPVAAINVLLSILNRKGPQEVGPQGPAVPSGGGRRRRAEGGLLMRPIICICNDQFAPSLRQLKQQAFLLHFPPTLPSRLVQRLQEVSLRQGMRADPGVLAALCEKTDNDIRACINTLQFLYSRGQRELSVRDVQATRVGLKDQRRGLFSVWQEVFQLPRAQRRRVGQDPALPADTLLLGDGDAGSLTSASQRFYRVLHAAASAGEHEKVVQGLFDNFLRLRLRDSSLGAVCVALDWLAFDDLLAGAAHHSQSFQLLRYPPFLPVAFHVLFASSHTPRITFPSSQQEAQNRMSQMRNLIQTLVSGIAPATRSRATPQALLLDALCLLLDILAPKLRPVSTQLYSTREKQQLASLVGTMLAYSLTYRQERTPDGQYIYRLEPNVEELCRFPELPARKPLTYQTKQLIAREIEVEKMRRAEASARVENSPQVDGSPPGLEGLLGGIGEKGVHRPAPRNHEQRLEHIMRRAAREEQPEKDFFGRVVVRSTAVPSAGDTAPEQDSVERRMGTAVGRSEVWFRFNEGVSNAVRRSLYIRDLL", "values": [{"measurement": "Number of positive AMLs", "result": 3}, {"measurement": "rep. frequency", "result": "[20.0%]"}]}, {"molecule": "DGCR8 (protein, UniProt Q8WYQ5 1-773, looked up) Microprocessor complex …: METDESPSPLPCGPAGEAVMESRARPFQALPREQSPPPPLQTSSGAEVMDVGSGGDGQSELPAEDPFNFYGASLLSKGSFSKGRLLIDPNCSGHSPRTARHAPAVRKFSPDLKLLKDVKISVSFTESCRSKDRKVLYTGAERDVRAECGLLLSPVSGDVHACPFGGSVGDGVGIGGESADKKDEENELDQEKRVEYAVLDELEDFTDNLELDEEGAGGFTAKAIVQRDRVDEEALNFPYEDDFDNDVDALLEEGLCAPKKRRTEEKYGGDSDHPSDGETSVQPMMTKIKTVLKSRGRPPTEPLPDGWIMTFHNSGVPVYLHRESRVVTWSRPYFLGTGSIRKHDPPLSSIPCLHYKKMKDNEEREQSSDLTPSGDVSPVKPLSRSAELEFPLDEPDSMGADPGPPDEKDPLGAEAAPGALGQVKAKVEVCKDESVDLEEFRSYLEKRFDFEQVTVKKFRTWAERRQFNREMKRKQAESERPILPANQKLITLSVQDAPTKKEFVINPNGKSEVCILHEYMQRVLKVRPVYNFFECENPSEPFGASVTIDGVTYGSGTASSKKLAKNKAARATLEILIPDFVKQTSEEKPKDSEELEYFNHISIEDSRVYELTSKAGLLSPYQILHECLKRNHGMGDTSIKFEVVPGKNQKSEYVMACGKHTVRGWCKNKRVGKQLASQKILQLLHPHVKNWGSLLRMYGRESSKMVKQETSDKSVIELQQYAKKNKPNLHILSKLQEEMKRLAEEREETRKKPKMSIVASAQPGGEPLCTVDV", "values": [{"measurement": "Number of positive AMLs", "result": 3}, {"measurement": "rep. frequency", "result": "[20.0%]"}]}, {"molecule": "ANKS1A (protein, UniProt Q92625 2-1134, looked up) Ankyrin repeat and SAM …: GKEQELLEAARTGHLPAVEKLLSGKRLSSGFGGGGGGGSGGGGGGSGGGGGGLGSSSHPLSSLLSMWRGPNVNCVDSTGYTPLHHAALNGHKDVVEVLLRNDALTNVADSKGCYPLHLAAWKGDAQIVRLLIHQGPSHTRVNEQNNDNETALHCAAQYGHTEVVKVLLEELTDPTMRNNKFETPLDLAALYGRLEVVKMLLNAHPNLLSCNTKKHTPLHLAARNGHKAVVQVLLDAGMDSNYQTEMGSALHEAALFGKTDVVQILLAAGTDVNIKDNHGLTALDTVRELPSQKSQQIAALIEDHMTGKRSTKEVDKTPPPQPPLISSMDSISQKSQGDVEKAVTELIIDFDANAEEEGPYEALYNAISCHSLDSMASGRSSDQDSTNKEAEAAGVKPAGVRPRERPPPPAKPPPDEEEEDHIDKKYFPLTASEVLSMRPRIHGSAAREEDEHPYELLLTAETKKVVLVDGKTKDHRRSSSSRSQDSAEGQDGQVPEQFSGLLHGSSPVCEVGQDPFQLLCTAGQSHPDGSPQQGACHKASMQLEETGVHAPGASQPSALDQSKRVGYLTGLPTTNSRSHPETLTHTASPHPGGAEEGDRSGARSRAPPTSKPKAELKLSRSLSKSDSDLLTCSPTEDATMGSRSESLSNCSIGKKRLEKSPSFASEWDEIEKIMSSIGEGIDFSQERQKISGLRTLEQSVGEWLESIGLQQYESKLLLNGFDDVHFLGSNVMEEQDLRDIGISDPQHRRKLLQAARSLPKVKALGYDGNSPPSVPSWLDSLGLQDYVHSFLSSGYSSIDTVKNLWELELVNVLKVQLLGHRKRIIASLADRPYEEPPQKPPRFSQLRCQDLLSQTSSPLSQNDSCTGRSADLLLPPGDTGRRRHDSLHDPAAPSRAERFRIQEEHREAKLTLRPPSLAAPYAPVQSWQHQPEKLIFESCGYEANYLGSMLIKDLRGTESTQDACAKMRKSTEHMKKIPTIILSITYKGVKFIDASNKNVIAEHEIRNISCAAQDPEDLCTFAYITKDLQTSHHYCHVFSTVDVNLTYEIILTLGQAFEVAYQLALQAQKSRATGASAAEMIETKSSKPVPKPRVGVRKSALEPPDMDQDAQSHASVSWVVDPKPDSKRSLSTN", "values": [{"measurement": "Number of positive AMLs", "result": 3}, {"measurement": "rep. frequency", "result": "[20.0%]"}]}, {"molecule": "PHACTR3 (protein, UniProt Q96KR7 1-559, looked up) Phosphatase and actin …: MAASEDGSGCLVSRGRSQSDPSVLTDSSATSSADAGENPDEMDQTPPARPEYLVSGIRTPPVRRNSKLATLGRIFKPWKWRKKKNEKLKQTTSALEKKMAGRQGREELIKKGLLEMMEQDAESKTCNPDGGPRSVQSEPPTPKSETLTSEDAQPGSPLATGTDQVSLDKPLSSAAHLDDAAKMPSASSGEEADAGSLLPTTNELSQALAGADSLDSPPRPLERSVGQLPSPPLLPTPPPKASSKTTKNVTGQATLFQASSMKSADPSLRGQLSTPTGSPHLTTVHRPLPPSRVIEELHRALATKHRQDSFQGRESKGSPKKRLDVRLSRTSSVERGKEREEAWSFDGALENKRTAAKESEENKENLIINSELKDDLLLYQDEEALNDSIISGTLPRKCKKELLAVKLRNRPSKQELEDRNIFPRRTDEERQEIRQQIEMKLSKRLSQRPAVEELERRNILKQRNDQTEQEERREIKQRLTRKLNQRPTVDELRDRKILIRFSDYVEVAKAQDYDRRADKPWTRLSAADKAAIRKELNEYKSNEMEVHASSKHLTRFHRP", "values": [{"measurement": "Number of positive AMLs", "result": 3}, {"measurement": "rep. frequency", "result": "[20.0%]"}]}]}
